Laboratory results reported in patent US20070054916A1, “Aryl nitrogen-containing bicyclic compounds and methods of use” (Amgen Inc., priority 2004, published 2007).
Some of these results come from one statement about several compounds together.

Sequences of proteins named here, by UniProt entry; tags and fusion partners are left off. Residues count along the entry.
UniProt Q02763, 23-1124: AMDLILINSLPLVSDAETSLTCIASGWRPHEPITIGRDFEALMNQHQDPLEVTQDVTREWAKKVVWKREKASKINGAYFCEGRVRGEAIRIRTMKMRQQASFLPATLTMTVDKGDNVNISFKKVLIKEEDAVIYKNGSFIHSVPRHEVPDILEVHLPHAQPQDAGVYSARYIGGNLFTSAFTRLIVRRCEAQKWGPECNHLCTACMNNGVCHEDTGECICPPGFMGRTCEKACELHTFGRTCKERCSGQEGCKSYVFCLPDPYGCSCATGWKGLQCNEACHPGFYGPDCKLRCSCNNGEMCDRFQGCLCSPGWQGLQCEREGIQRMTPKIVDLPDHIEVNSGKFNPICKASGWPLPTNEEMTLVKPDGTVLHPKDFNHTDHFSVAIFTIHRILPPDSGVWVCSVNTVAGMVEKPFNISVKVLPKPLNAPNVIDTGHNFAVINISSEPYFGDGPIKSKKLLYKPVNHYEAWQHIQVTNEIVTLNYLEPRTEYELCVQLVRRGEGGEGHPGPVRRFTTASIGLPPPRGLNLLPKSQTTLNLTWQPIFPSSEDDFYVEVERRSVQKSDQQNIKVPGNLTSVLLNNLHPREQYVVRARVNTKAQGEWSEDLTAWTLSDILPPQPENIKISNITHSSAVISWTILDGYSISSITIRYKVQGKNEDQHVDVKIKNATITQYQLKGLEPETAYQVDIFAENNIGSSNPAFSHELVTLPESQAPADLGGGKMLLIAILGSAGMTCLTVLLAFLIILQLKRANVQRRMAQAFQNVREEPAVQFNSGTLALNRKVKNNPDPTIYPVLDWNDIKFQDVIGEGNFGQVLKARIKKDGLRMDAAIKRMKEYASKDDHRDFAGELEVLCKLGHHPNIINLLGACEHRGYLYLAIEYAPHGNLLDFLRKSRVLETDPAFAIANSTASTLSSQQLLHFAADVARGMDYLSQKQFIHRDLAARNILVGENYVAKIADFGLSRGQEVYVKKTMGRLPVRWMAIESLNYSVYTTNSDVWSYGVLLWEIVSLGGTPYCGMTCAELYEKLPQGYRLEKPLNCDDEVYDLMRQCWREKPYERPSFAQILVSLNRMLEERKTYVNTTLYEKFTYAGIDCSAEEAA

The compounds below were run against Tie-2 kinase enzyme (Homo sapiens, UniProt Q02763) (assay: Tie-2 Homogenous Time Resolved Flourescent (HTRF) kinase assay). Settings: read-out: IC50's for the inhibition of Tie-2 as measured by the HTRF assay.
Format: biochemical

SMILES	IC50 [nM]
Cc1c(NC(=O)c2cccc(C(F)(F)F)c2)cccc1-c1ccc2nc(N)ncc2c1 [Example 197, N-(3-(2-amino-6-quinazolinyl)-2-methylphenyl)-3-(trifluoromethyl)benzamide]	≤ 1000
CNc1ncc2cc(-c3cccc(NC(=O)c4cccc(C(F)(F)F)c4)c3C)cnc2n1 [Example 198, N-2-methyl-3-(2-(methylamino)pyrido[2,3-d]pyrimidin-6-yl)-N-(3-(trifluoromethyl)phenyl)benzamide]	≤ 1000
CNc1ncc2cc(-c3cc(NC(=O)c4cccc(C(F)(F)F)c4)ccc3C)cnc2n1 [Example 199, N-(4-methyl-3-(2-(methylamino)pyrido[2,3-d]pyrimidin-6-yl)phenyl)-3-(trifluoromethyl) benzamide]	≤ 1000
CNc1ncc2cc(-c3cc(NC(=O)c4cc(C(F)(F)F)cc(C(F)(F)F)c4)ccc3C)cnc2n1 [Example 200, N-(4-methyl-3-(2-(methylamino)pyrido[2,3-d]pyrimidin-6-yl)phenyl)-3,5-bis(trifluoromethyl)benzamide]	≤ 1000
CNc1ncc2cc(-c3cc(NC(=O)c4cccc(C(F)(F)F)c4F)ccc3C)cnc2n1 [Example 202]	≤ 1000
CNc1ncc2cc(-c3cc(NC(=O)c4cc(C(F)(F)F)ccc4F)ccc3C)cnc2n1 [Example 203, 2-fluoro-N-(4-methyl-3-(2-(methylamino)pyrido[2,3-d]pyrimidin-6-yl)phenyl)-5-(trifluoromethyl) benzamide]	≤ 1000
CNc1ncc2cc(-c3cc(NC(=O)c4cccc5c4OC(F)(F)O5)ccc3C)cnc2n1 [Example 214, 2,2-difluoro-N-(4-methyl-3-(2-(methylamino)pyrido[2,3-d]pyrimidin-6-yl)phenyl)-1,3-benzodioxole-4-carboxamide]	≤ 1000
CNc1ncc2cc(-c3cc(NC(=O)c4cc(OC)c(OC)c(OC)c4)ccc3C)cnc2n1 [Example 216, N-(4-methyl-3-(2-(methylamino)pyrido[2,3-d]pyrimidin-6-yl)phenyl)-3,4,5-tris(methyloxy)benzamide]	≤ 1000
CNc1ncc2cc(-c3cc(NC(=O)c4cc(F)cc(C(F)(F)F)c4)ccc3C)cnc2n1 [Example 217, 3-fluoro-N-(4-methyl-3-(2-(methylamino)pyrido[2,3-d]pyrimidin-6-yl)phenyl)-5-(trifluoromethyl) benzamide]	≤ 1000
CNc1ncc2cc(-c3cccc(NC(=O)c4cc(F)cc(C(F)(F)F)c4)c3C)cnc2n1 [Example 219]	≤ 1000
Cc1c(NC(=O)c2cc(C(F)(F)F)cc(C(F)(F)F)c2)cccc1-c1ccc2nc(N)ncc2c1 [Example 220, N-(3-(2-amino-6-quinazolinyl)-2-methylphenyl)-3,5-bis(trifluoromethyl)benzamide]	≤ 1000
CNc1ncc2cc(-c3cccc(NC(=O)c4cc(C(F)(F)F)cc(C(F)(F)F)c4)c3C)cnc2n1 [Example 221]	≤ 1000
Cc1c(NC(=O)c2cc(C(F)(F)F)ccc2F)cccc1-c1ccc2nc(N)ncc2c1 [Example 222, N-(3-(2-amino-6-quinazolinyl)-2-methylphenyl)-2-fluoro-5-(trifluoromethyl) benzamide]	≤ 1000
Cc1cc(C)c(-c2ccc3nc(N)ncc3c2)c(C)c1NC(=O)c1cccc(C(F)(F)F)c1 [Example 224, N-(3-(2-amino-6-quinazolinyl)-2,4,6-trimethylphenyl)-3-(trifluoromethyl) benzamide]	≤ 1000
Cc1ccc(C(=O)Nc2nc(C)c(C)s2)cc1-c1ccc2nc(N)ncc2c1 [Example 225, 3-(2-amino-6-quinazolinyl)-N-(4,5-dimethyl-1,3-thiazol-2-yl)-4-methylbenzamide]	≤ 1000
Cc1ccc(C(=O)Nc2ccc(C(C)(C)C)c(NC(=O)CN(C)C)c2)cc1-c1ccc2nc(N)ncc2c1 [Example 227, 3-(2-amino-6-quinazolinyl)-N-(4-(1,1-dimethylethyl)-3-((N,N-dimethylglycyl)amino)phenyl)-4-methylbenzamide]	≤ 1000
Cc1ccc(C(=O)Nc2cc(C(F)(F)F)ccc2N2CCS(=O)(=O)CC2)cc1-c1ccc2nc(N)ncc2c1 [Example 228, 3-(2-amino-6-quinazolinyl)-N-(2-(1,1-dioxido-4-thiomorpholinyl)-5-(trifluoromethyl)phenyl)-4-methylbenzamide]	≤ 1000
Cc1ccc(C(=O)Nc2cc(C(F)(F)F)ccc2OCC(F)(F)F)cc1-c1ccc2nc(N)ncc2c1 [Example 229, 3-(2-amino-6-quinazolinyl)-4-methyl-N-(2-((2,2,2-trifluoroethyl)oxy)-5-(trifluoromethyl)phenyl)benzamide]	≤ 1000
COc1cc(OC)c(C(F)(F)F)cc1NC(=O)c1ccc(C)c(-c2ccc3nc(N)ncc3c2)c1 [Example 230, 3-(2-amino-6-quinazolinyl)-N-(2,4-bis(methyloxy)-5-(trifluoromethyl)phenyl)-4-methylbenzamide]	≤ 1000

SMILES	IC50 [nM]
CCN(CC)S(=O)(=O)c1ccc(OC)c(NC(=O)c2ccc(C)c(-c3ccc4nc(N)ncc4c3)c2)c1 [Example 231, 3-(2-amino-6-quinazolinyl)-N-(5-((diethylamino)sulfonyl)-2-(methyloxy)phenyl)-4-methylbenzamide]	≤ 1000
Cc1ccc(C(=O)Nc2cccc(Cl)c2Cl)cc1-c1ccc2nc(N)ncc2c1 [Example 232, 3-(2-amino-6-quinazolinyl)-N-(2,3-dichlorophenyl)-4-methylbenzamide]	≤ 1000
CC(=O)Nc1ccc(C(F)(F)F)cc1NC(=O)c1ccc(C)c(-c2ccc3nc(N)ncc3c2)c1 [Example 234, N-(2-(acetylamino)-5-(trifluoromethyl)phenyl)-3-(2-amino-6-quinazolinyl)-4-methylbenzamide]	≤ 1000
CC(C)c1cccc(NC(=O)c2cccc(-c3ccc4nc(N)ncc4c3)c2)c1 [Example 236, 3-(2-amino-6-quinazolinyl)-N-(3-(1-methylethyl)phenyl) benzamide]	≤ 1000
CN(C)CC(C)(C)c1ccc(C(F)(F)F)cc1NC(=O)c1cccc(-c2ccc3nc(N)ncc3c2)c1 [Example 237, 3-(2-amino-6-quinazolinyl)-N-(2-(2-(dimethylamino)-1,1-dimethylethyl)-5-(trifluoromethyl)phenyl)benzamide]	≤ 1000
CNc1ncc2cc(-c3cccc(C(=O)Nc4cc(C(F)(F)F)ccc4C(C)(C)CN(C)C)c3)ccc2n1 [Example 239, N-(2-(2-(dimethylamino)-1,1-dimethylethyl)-5-(trifluoromethyl)phenyl)-3-(2-(methylamino)-6-quinazolinyl) benzamide]	≤ 1000
CN1CCN(c2ccc(C(F)(F)F)cc2NC(=O)c2cccc(-c3ccc4nc(N)ncc4c3)c2)CC1 [Example 241, 3-(2-amino-6-quinazolinyl)-N-(2-(4-methyl-1-piperazinyl)-5-(trifluoromethyl)phenyl)benzamide]	≤ 1000
CNc1ncc2cc(-c3cccc(C(=O)Nc4cc(C(F)(F)F)ccc4CN4CCN(C)CC4)c3)ccc2n1 [Example 242, 3-(2-(methylamino)-6-quinazolinyl)-N-(2-((4-methyl-1-piperazinyl)methyl)-5-(trifluoromethyl)phenyl)benzamide]	≤ 1000
Cc1ccc(C(=O)Nc2cc(C(F)(F)F)ccc2CN2CCN(C)CC2)cc1-c1ccc2nc(N)ncc2c1 [Example 243, 3-(2-amino-6-quinazolinyl)-4-methyl-N-(2-((4-methyl-1-piperazinyl)methyl)-5-(trifluoromethyl)phenyl)benzamide]	≤ 1000
Cc1ccc(C(=O)Nc2cc(C(C)(C)C)ccc2N(C)CCCN(C)C)cc1-c1ccc2nc(N)ncc2c1 [Example 244, 3-(2-amino-6-quinazolinyl)-N-(2-((3-(dimethylamino)propyl)(methyl)amino)-5-(1,1-dimethylethyl)phenyl)-4-methylbenzamide]	≤ 1000
Cc1ccc(C(=O)Nc2cc(C(F)(F)F)ccc2CCN(C)C)cc1-c1ccc2nc(N)ncc2c1 [Example 245, 3-(2-amino-6-quinazolinyl)-N-(2-(2-(dimethylamino)ethyl)-5-(trifluoromethyl)phenyl)-4-methylbenzamide]	≤ 1000
CC(C)c1ccc(N(C)CCCN(C)C)c(NC(=O)c2cccc(-c3ccc4nc(N)ncc4c3)c2)c1 [Example 246, 3-(2-amino-6-quinazolinyl)-N-(2-((3-(dimethylamino)propyl)(methyl)amino)-5-(1-methylethyl)phenyl)benzamide]	≤ 1000
Cc1ccc(C(=O)Nc2cc(C(F)(F)F)ccc2N2CCC[C@H](N(C)C)C2)cc1-c1ccc2nc(N)ncc2c1 [Example 247, 3-(2-amino-6-quinazolinyl)-N-(2-((3S)-3-(dimethylamino)-1-piperidinyl)-5-(trifluoromethyl)phenyl)-4-methylbenzamide]	≤ 1000
Cc1ccc(C(=O)Nc2cc(C(F)(F)F)ccc2N2CCC(N(C)C)CC2)cc1-c1ccc2nc(N)ncc2c1 [Example 248, 3-(2-amino-6-quinazolinyl)-N-(2-(4-(dimethylamino)-1-piperidinyl)-5-(trifluoromethyl)phenyl)-4-methylbenzamide]	≤ 1000
Cc1ccc(C(=O)Nc2ccc(OC(F)(F)F)cc2)cc1-c1ccc2nc(N)ncc2c1 [Example 249, 3-(2-amino-6-quinazolinyl)-4-methyl-N-(4-((trifluoromethyl)oxy)phenyl) benzamide]	≤ 1000
CN(C)CCCN(C)c1ccc(C(C)(C)C)cc1NC(=O)c1cccc(-c2ccc3nc(N)ncc3c2)c1 [Example 250, 3-(2-amino-6-quinazolinyl)-N-(2-((3-(dimethylamino)propyl)(methyl)amino)-5-(1,1-dimethylethyl)phenyl)benzamide]	≤ 1000
CN(C)CCCN(C)c1ccc(C(C)(C)C)cc1NC(=O)c1cc(-c2ccc3nc(N)ncc3c2)ccc1F [Example 251, 5-(2-amino-6-quinazolinyl)-N-(2-((3-(dimethylamino)propyl)(methyl)amino)-5-(1,1-dimethylethyl)phenyl)-2-fluorobenzamide]	≤ 1000
C#Cc1ccc(N(C)CCCN(C)C)c(NC(=O)c2cc(-c3ccc4nc(N)ncc4c3)ccc2F)c1 [Example 252, 5-(2-amino-6-quinazolinyl)-N-(2-((3-(dimethylamino)propyl)(methyl)amino)-5-ethynylphenyl)-2-fluorobenzamide]	≤ 1000
